These results are taken from doi:10.1101/870998.

Experiment in all cases: co-IP
In test [1] the target is T1, GFP-iASPP 1-599 (UniProt Q8WUF5).
T1 sequence: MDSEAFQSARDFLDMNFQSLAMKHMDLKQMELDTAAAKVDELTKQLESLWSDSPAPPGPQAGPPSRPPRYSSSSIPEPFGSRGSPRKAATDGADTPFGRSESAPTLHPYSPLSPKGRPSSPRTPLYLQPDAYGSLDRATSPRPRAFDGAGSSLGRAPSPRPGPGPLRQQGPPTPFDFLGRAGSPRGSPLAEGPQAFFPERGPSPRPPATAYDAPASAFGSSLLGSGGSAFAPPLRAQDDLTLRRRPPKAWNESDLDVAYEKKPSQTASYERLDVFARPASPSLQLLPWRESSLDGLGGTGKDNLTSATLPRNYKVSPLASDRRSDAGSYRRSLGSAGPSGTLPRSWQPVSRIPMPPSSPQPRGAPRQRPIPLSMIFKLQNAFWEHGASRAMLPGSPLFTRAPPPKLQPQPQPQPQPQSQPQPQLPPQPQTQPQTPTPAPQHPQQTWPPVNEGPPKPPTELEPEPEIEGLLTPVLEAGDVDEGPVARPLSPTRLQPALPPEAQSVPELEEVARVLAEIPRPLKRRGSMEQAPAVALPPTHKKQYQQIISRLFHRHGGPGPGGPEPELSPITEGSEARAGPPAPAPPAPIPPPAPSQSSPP

In test [2] the target is T2, GFP-iASPP 1-628 (UniProt Q8WUF5).
T2 sequence: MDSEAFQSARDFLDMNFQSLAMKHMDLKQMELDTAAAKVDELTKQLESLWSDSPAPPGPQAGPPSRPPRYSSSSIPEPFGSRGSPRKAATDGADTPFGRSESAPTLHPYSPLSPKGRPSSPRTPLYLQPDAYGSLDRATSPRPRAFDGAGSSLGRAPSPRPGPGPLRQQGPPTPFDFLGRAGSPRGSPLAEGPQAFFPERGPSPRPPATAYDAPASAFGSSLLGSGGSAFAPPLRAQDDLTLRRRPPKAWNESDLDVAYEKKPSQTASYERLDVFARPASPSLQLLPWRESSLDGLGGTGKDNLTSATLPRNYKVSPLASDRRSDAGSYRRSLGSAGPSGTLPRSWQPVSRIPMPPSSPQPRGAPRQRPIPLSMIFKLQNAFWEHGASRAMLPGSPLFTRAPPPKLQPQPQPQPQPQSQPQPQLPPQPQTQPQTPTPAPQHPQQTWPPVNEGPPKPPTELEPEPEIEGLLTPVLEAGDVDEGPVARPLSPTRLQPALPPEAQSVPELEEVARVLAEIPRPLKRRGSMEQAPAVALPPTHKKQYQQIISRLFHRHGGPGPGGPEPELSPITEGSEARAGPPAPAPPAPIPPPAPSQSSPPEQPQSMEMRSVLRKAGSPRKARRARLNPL

Test [3] has as its target T3, GFP-iASPP Ank-SH3 (629-828) (UniProt Q8WUF5).
T3 sequence: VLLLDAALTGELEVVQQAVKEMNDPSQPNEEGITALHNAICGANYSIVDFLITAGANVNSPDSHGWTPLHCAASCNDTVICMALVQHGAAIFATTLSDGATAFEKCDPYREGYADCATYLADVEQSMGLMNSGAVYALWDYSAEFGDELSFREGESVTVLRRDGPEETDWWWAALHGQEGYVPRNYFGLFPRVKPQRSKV

Test [4] deals with T4, GFP-iASPP 1-290 (UniProt Q8WUF5).
T4 sequence: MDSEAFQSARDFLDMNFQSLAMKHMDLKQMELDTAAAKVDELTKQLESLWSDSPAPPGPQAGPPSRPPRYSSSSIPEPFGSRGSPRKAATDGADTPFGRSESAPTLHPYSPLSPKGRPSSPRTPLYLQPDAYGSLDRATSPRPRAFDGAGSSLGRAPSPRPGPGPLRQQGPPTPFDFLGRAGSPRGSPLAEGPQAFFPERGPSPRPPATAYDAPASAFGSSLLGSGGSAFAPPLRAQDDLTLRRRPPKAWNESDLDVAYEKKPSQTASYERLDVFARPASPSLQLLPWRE

Test [5] deals with T5, GFP-iASPP C-terminal region (Cter, 600-828) (UniProt Q8WUF5).
T5 sequence: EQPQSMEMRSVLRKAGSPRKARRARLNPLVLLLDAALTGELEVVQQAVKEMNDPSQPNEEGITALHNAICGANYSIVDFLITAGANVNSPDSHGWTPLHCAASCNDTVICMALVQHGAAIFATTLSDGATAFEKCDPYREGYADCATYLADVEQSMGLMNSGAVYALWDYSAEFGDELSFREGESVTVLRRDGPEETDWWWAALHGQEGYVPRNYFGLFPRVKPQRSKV

Test [6] deals with T6, GFP-iASPP-RARA (UniProt Q8WUF5).
T6 sequence: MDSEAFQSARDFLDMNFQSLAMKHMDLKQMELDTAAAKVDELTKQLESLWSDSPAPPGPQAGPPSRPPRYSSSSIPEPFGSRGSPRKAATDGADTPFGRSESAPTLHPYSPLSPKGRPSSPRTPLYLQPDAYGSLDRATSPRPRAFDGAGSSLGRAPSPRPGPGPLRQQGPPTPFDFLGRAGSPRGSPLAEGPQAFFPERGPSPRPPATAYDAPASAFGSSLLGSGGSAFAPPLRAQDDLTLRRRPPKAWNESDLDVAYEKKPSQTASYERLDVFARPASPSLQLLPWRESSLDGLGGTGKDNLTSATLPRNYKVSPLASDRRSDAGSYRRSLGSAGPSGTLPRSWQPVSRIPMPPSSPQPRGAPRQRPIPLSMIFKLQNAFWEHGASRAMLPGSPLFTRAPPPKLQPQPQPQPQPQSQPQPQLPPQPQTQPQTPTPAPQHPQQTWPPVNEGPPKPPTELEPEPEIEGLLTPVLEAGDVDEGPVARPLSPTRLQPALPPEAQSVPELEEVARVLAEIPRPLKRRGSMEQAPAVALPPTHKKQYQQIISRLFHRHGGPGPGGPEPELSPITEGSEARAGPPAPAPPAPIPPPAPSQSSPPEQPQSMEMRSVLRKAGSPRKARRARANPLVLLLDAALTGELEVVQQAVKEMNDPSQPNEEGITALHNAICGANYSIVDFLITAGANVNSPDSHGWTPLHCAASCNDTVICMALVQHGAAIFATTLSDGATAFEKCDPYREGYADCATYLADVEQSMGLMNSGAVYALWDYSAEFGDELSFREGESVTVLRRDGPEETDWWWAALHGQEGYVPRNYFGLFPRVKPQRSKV

For test [7], the target named is T7, GFP-iASPP SH3 domain alone (UniProt Q8WUF5).
T7 sequence: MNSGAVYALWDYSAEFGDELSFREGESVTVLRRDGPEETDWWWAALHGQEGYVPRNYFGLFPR

Test [8] deals with T8, GFP-iASPP (wild type) (UniProt Q8WUF5).
T8 sequence: T6 sequence with A625L

For test [9], the target named is T5, GFP-iASPP C-terminal region (Cter, 600-828). This is another data set of the same source.

Numbering of substitutions follows the chain as printed. Like-named read-outs stand apart in the source and are kept apart here. No constants are given. Whether binding was seen depends on the method and setting. In cells and extracts the contact can be indirect. For part of these data: A result given as binding can be weak or reduced; the word gives no strength. Where a sequence is shown, tags or fusion partners need not be part of it.

Consider PP1 (endogenous) (enzyme), for which the binding result in test [1] is on record as “no binding”; in test [2] it was “no binding”; in test [3], “binds weakly”; in test [4] it was “no binding”; in [5], “binds”; in [6] it was “no binding”. For the same substance, the binding result in test [7] is given as “no binding”; in test [8], “binds”; in test [9] it was “binds”.
